Laboratory results: PubChem BioAssay AID1347076 (National Center for Advancing Translational Sciences (NCATS), 2019)
Among all 400,000 compounds or so, about 13,000 (3.2%) were called active. The shares of active, inactive and inconclusive entries below differ from those in the screen. The call rests on the fitted dose curve; in most records, active means well fitted cell-killing curve with a large enough effect; inconclusive means small, poorly fitted or top-dose-only effect, or effect the other way; inactive means flat fitted curve, though single readings scatter. A potency beside an inconclusive call is a rough fit, not a confirmed value.
On the % scale 0 is the no-effect control and ±100 the full control effect; potency means the concentration at half of the fitted maximal effect.

Experiment: qHTS assay for MDR1-selective chemotherapeutics: Primary screen using the drug-selected MDR subline cells KB-V1; further: nearly all actives have a fitted effect of over 60% in size
Settings: KB-V1 MDR cells viability, CellTiter-Glo, 72 h; activity change, negative = cytotoxicity: at 46.1 µM (top of the series)
Method in brief: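 Drug-selected KB-V1 cells, grown in DMEM lacking phenol red with 10% FBS, receive compound titrations; after three days at 37 degrees C, surviving cell ATP is quantified by CellTiter-Glo luminescence and responses normalized and curve-fitted.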
With COc1cc(C2C3=C(CC(C)(C)CC3=O)N(C)C(=O)N2C)cc(OC)c1OC (stereo not drawn) the Potency was inconclusive: 10.3 µM [cytotoxic, partial curve, poor fit].
With O=C(COC(=O)c1ccc(N2CCOCC2)c([N+](=O)[O-])c1)Nc1ccc2c(c1)OCO2 the Potency was active: 8.2 µM.
In the case of COc1ccc(C2CC(C(F)(F)F)n3nc(C(=O)NCc4c(C)nn(C)c4C)c(Cl)c3N2)cc1 (stereo not drawn), the Potency is reported as active: 6.51 µM.
For CCC(C)NC(=O)c1ccc(C2SCC(=O)N2Cc2ccccc2)cc1 (stereo not drawn), the Potency was inconclusive: 23.1 µM [cytotoxic, partial curve, poor fit].
With CN(Cc1ccccc1)C(=O)c1ccc(Nc2nc(C(N)Cc3ccc(C(F)(F)F)cc3)cs2)nc1 (stereo not drawn) the Potency was inconclusive: 29.1 µM [cytotoxic, single point].
With COc1cc2c(cc1OC)C(c1cccc(OC)c1OC)CC(=O)N2 (stereo not drawn) the Potency was inconclusive: 2.51 µM [cytotoxic, partial curve, poor fit].
In the case of CSc1cccc(NC(=S)N(CCCN2CCCC2)Cc2cccn2Cc2ccc(Cl)cc2)c1, the Potency is reported as active: 18.4 µM.
In the case of O=C(COc1cccc(Br)c1)Nc1ccc(Cl)c(S(=O)(=O)N2CCOCC2)c1, the Potency is reported as inconclusive: 20.6 µM [cytotoxic, partial curve, poor fit].
For CC(C(=O)NC(C)(C)C)N(Cc1cccs1)C(=O)CCN1CCc2ccccc21 (stereo not drawn), the Potency was inconclusive: 4.61 µM [cytotoxic, partial curve, poor fit].
With CCN(CC)CCN(Cc1cc2cc3c(cc2[nH]c1=O)OCO3)C(=S)NCCCOC the Potency was “inactive”.
For CNC(=O)c1ccc(Nc2nnc(-c3ccc(O)cc3)c3ccccc23)cc1, the Potency was inconclusive: 16.4 µM [rising, single point].
For CCC(=O)c1ccc(OCc2ccc(C(=O)OC)cc2)c(OC)c1, the Potency was inconclusive: 18.4 µM [rising, single point].
In the case of COc1cccc(OC)c1C(=O)N1CCN(Cc2ccccc2C(F)(F)F)CC1, the Potency is reported as “inactive”.
With CCN(CC)S(=O)(=O)c1ccc(/C=C/C(=O)Nc2ccc(Br)cc2F)cc1 the Potency was “inactive”.
With O=C(NCCc1ccc(Cl)cc1)c1cc(-c2ccccc2)n[nH]1 the Potency was “inactive”.
With COc1cccc(C(=O)Nc2ccc(Oc3cccc(C(F)(F)F)c3)nc2)c1 the Potency was inconclusive: 29.1 µM [cytotoxic, single point].
For COc1ccc(CN2C(=O)CN=C2Nc2cc(C)ccc2C)cc1, the Potency was inconclusive: 22.4 µM [cytotoxic, single point].
With Cc1cc(C(=O)N2CCN(c3ccccc3)CC2)c(C)o1 the Potency was inconclusive: 13 µM [cytotoxic, partial curve].
With Cc1c(C)n(Cc2ccccc2)c2ccc(C(=O)N3CCN(c4ccccc4F)CC3)cc12 the Potency was inconclusive: 0.82 µM [rising, full curve].
For CN(c1ccccc1)S(=O)(=O)c1cccc(NC(=O)C2=NN(c3ccccc3)C(=O)CC2)c1, the Potency was inconclusive: 16.4 µM [cytotoxic, partial curve].
For Cc1ncc(CN2CCCC(C(=O)Nc3ccc(-c4cscn4)cc3)C2)cn1 (stereo not drawn), the Potency was “inactive”.
With COc1cc(C(=O)N/N=C/c2cn(Cc3cccc(F)c3)c3ccccc23)ccc1O the Potency was inconclusive: 29.1 µM [cytotoxic, single point].
In the case of COc1ccc(OC)c(CNC(=O)C2CCCN(c3nc4ccccc4o3)C2)c1 (stereo not drawn), the Potency is reported as “inactive”.
For O=S(=O)(c1ccccc1Cl)N1CCN(c2nc(-c3ccccc3)nc3ccccc23)CC1, the Potency was inconclusive: 29.1 µM [rising, single point].
In the case of Cc1ccc(S(=O)(=O)N/N=C\c2ccc([N+](=O)[O-])o2)cc1, the Potency is reported as “inactive”.
In the case of COc1ccc(C2=C(C)C(N3CCC(C(=O)NCc4ccc(C)o4)CC3)=NS2(=O)=O)cc1, the Potency is reported as “inactive”.
For NS(=O)(=O)c1ccc(CCNC(=O)CSc2ccsc2[N+](=O)[O-])cc1, the Potency was “inactive”.
With COCCNC(=O)C1C(=O)Nc2ccccc2C(=O)N1c1ccc2c(c1)OCCO2 (stereo not drawn) the Potency was “inactive”.
In the case of C=CCn1c(Cc2cccc3ccccc23)n[nH]c1=S, the Potency is reported as active: 18.4 µM.
With COc1cccc(-n2c(Cn3nc(C(F)(F)F)cc3C)n[nH]c2=S)c1 the Potency was inconclusive: 8.2 µM [cytotoxic, partial curve].
With O=[N+]([O-])C1C(c2ccccc2)=NOC1c1ccccc1O (stereo not drawn) the Potency was “inactive”.
For COc1cc(Cl)ccc1OCc1cc(C(=O)N2CCCCCCC2)no1, the Potency was inconclusive: 29.1 µM [rising, partial curve, poor fit].
With Cc1ccc(-c2nc3cc(NC(=O)C(C)C)ccc3o2)cc1C the Potency was inconclusive: 4.61 µM [cytotoxic, partial curve].
In the case of O=C(Nc1nccs1)c1cc(-c2ccncc2)nc2ccccc12, the activity change, negative = cytotoxicity is reported as inconclusive: 12.8%.
For CCOC(=O)N1CCC(N2CCCC(CO)(Cc3cccc(Cl)c3)C2)CC1 (stereo not drawn), the Potency was inconclusive: 8.2 µM [cytotoxic, partial curve, poor fit].
In the case of O=C(Nc1ccccc1)c1ccc(=O)n(Cc2cccc(Cl)c2)c1, the Potency is reported as inconclusive: 9.2 µM [cytotoxic, partial curve].
With Cc1ccccc1NC(=O)CSC1=C(C#N)C(c2ccsc2)CC(=O)N1 (stereo not drawn) the Potency was inconclusive: 29.1 µM [cytotoxic, single point].
In the case of COc1cc2c(cc1OC)C(C)N(Cc1ccc3c(c1)OCO3)CC2 (stereo not drawn), the Potency is reported as inconclusive: 20.6 µM [cytotoxic, single point].
In the case of CCOC(=O)N1CCN(CC(O)COc2ccccc2C(C)CC)CC1 (stereo not drawn), the Potency is reported as inconclusive: 16.4 µM [cytotoxic, single point].
With CCN(CCCNC(=O)CSc1cc(=O)n(CC)c2ccccc12)c1ccccc1 the Potency was “inactive”.
For N#CC1=C(SCC(=O)NCc2ccccc2)NC(=O)CC1c1ccco1 (stereo not drawn), the Potency was “inactive”.
For COc1ccc(-c2nc3ccc(C)cn3c2Cc2ccsc2)cc1OC, the Potency was active: 23.1 µM.
In the case of COc1ccc2cc(Br)ccc2c1CC(=O)NC(C)C, the Potency is reported as inconclusive: 29.1 µM [cytotoxic, single point].
For O=C(C1CCCN(S(=O)(=O)Cc2ccccc2)C1)N1CCC(Cc2ccccc2)CC1 (stereo not drawn), the Potency was inconclusive: 10.3 µM [cytotoxic, partial curve, poor fit].
For CC1CCCN(C(=O)COC(=O)c2ccc(=O)n(Cc3ccccc3)n2)C1 (stereo not drawn), the Potency was inconclusive: 29.1 µM [rising, single point].
With CN(CC(=O)Nc1cccc(Cl)c1)S(=O)(=O)c1ccc2[nH]c(=O)oc2c1 the Potency was inconclusive: 9.2 µM [rising, partial curve, poor fit].
With CC(Oc1ccccc1Cl)C(=O)/C=C/N(C)C (stereo not drawn) the Potency was inconclusive: 18.4 µM [cytotoxic, single point].
With C/C(=N\NC(=O)c1ccn(C)n1)c1cccc(NC(=O)c2ccc(C)s2)c1 the Potency was inconclusive: 16.4 µM [cytotoxic, single point].
For Cc1ccc(NC(=O)CSc2nnc(C3CC3)n2N)cc1S(=O)(=O)N1CCOCC1, the Potency was “inactive”.
For O=C(Nc1ccc2c(c1)OCCO2)C1c2ccccc2OCC(=O)N1Cc1ccccn1 (stereo not drawn), the Potency was “inactive”.
With Cc1ccnc(Nc2ccc(CCO)cc2)n1 the Potency was inconclusive: 32.6 µM [rising, partial curve, poor fit].
With COc1cccc(CNC(=O)CN2C(=O)CCc3cc(S(=O)(=O)N4CCOCC4)ccc32)c1 the Potency was “inactive”.
In the case of COc1ccc(CCNC(=O)CCCCCN2C(=O)[C@@H]3Cc4ccccc4CN3C2=O)cc1OC, the Potency is reported as inconclusive: 1.64 µM [cytotoxic, full curve].
With COc1ccccc1Cn1c(C)c(C(=O)NCc2cccc(C)c2)sc1=O the Potency was inconclusive: 9.2 µM [cytotoxic, partial curve].
For Cn1ccc(CC(=O)N2CCC(N3CCC(C(=O)N4CCCC4)CC3)CC2)c1, the Potency was “inactive”.
For Cc1ncc([N+](=O)[O-])n1CC(=O)Nc1ccc(F)c(Cl)c1, the Potency was “inactive”.
In the case of CN(C)S(=O)(=O)c1cccc(NC(=O)c2c[nH]c3ccccc23)c1, the Potency is reported as inconclusive: 0.411 µM [rising, full curve, poor fit].
For Nn1c(-c2cccs2)nc2sc3c(c2c1=O)CCCC3, the Potency was inconclusive: 29.1 µM [cytotoxic, single point].
In the case of O=C(CN1C(=O)NC2(CCCC2)C1=O)N1CCN(S(=O)(=O)c2ccccc2[N+](=O)[O-])CC1, the Potency is reported as “inactive”.
In the case of CCOC(=O)N1CCN(c2cc(=O)n(Cc3ccc(F)cc3)c(=O)[nH]2)CC1, the Potency is reported as “inactive”.
With Nc1ccn([C@@H]2O[C@H](CNCc3ccc(-c4cc(C(F)(F)F)ccc4Cl)o3)[C@@H](O)[C@H]2O)c(=O)n1 the Potency was “inactive”.
In the case of CCN(CC)c1ccc(C(=C2C=CC(=[N+](CC)CC)C=C2)c2ccccc2)cc1, the Potency is reported as inconclusive: 2.31 µM [cytotoxic, partial curve, poor fit].
For Cc1ccc(C)c(OCc2cc(C(=O)N3CC[C@@H]4CCCC[C@H]4C3)no2)c1, the Potency was inconclusive: 32.6 µM [cytotoxic, partial curve, poor fit].
For CC(=O)c1ccc(NC(=O)NCCc2c[nH]c3ccccc23)cc1, the Potency was “inactive”.
For O=c1[nH]c(CN2CCN(S(=O)(=O)c3cccs3)CC2)nc2c(Br)cc(Br)cc12, the Potency was inconclusive: 8.2 µM [cytotoxic, partial curve].
With Cc1cccc(OCC(=O)Nc2ccc(C(=O)NCC(C)C)cc2)c1 the Potency was inconclusive: 16.4 µM [cytotoxic, single point].
In the case of Cc1ccc(-n2c(C)cc(/C([O-])=C(/C(=S)Nc3ccc(F)c(Cl)c3)[n+]3ccccc3)c2C)cc1, the Potency is reported as inconclusive: 29.1 µM [cytotoxic, single point].
In the case of CCOc1ccc(NC(=O)COc2ccc3c(c2)OCO3)cc1, the Potency is reported as inconclusive: 8.2 µM [rising, partial curve, poor fit].
